{
  "source": "patent US20260258021A1",
  "about": "“MONOFLUORINATED COUMARIN FLUOROPHORES AND USES THEREOF” (Ohio State Innovation Foundation, priority 2023, published 2026)",
  "system": "HeLa cells",
  "details": "3 h, 37° C.",
  "note": "Some results were stated once for a whole list of compounds, not compound by compound.",
  "data": [
    {"substance": "(2aR,4S,4aS,6R,9S,11S,12S,12bS)-9-(((2R,3S)-3-benzamido-2-hydroxy-3-phenylpropanoyl)oxy)-12-(benzoyloxy)-11-hydroxy-4-((4-(7-hydroxy-2-oxo-2H-chromene-3-carboxamido)butanoyl)oxy)-4a,8,13,13-tetramethyl-5-oxo-3,4,4a,5,6,9,10,11,12,12a-decahydro-1H-7,11-methanocyclodeca[3,4]benzo[1,2-b]oxete-6,12b(2aH)-diyldiacetate [Compound 6]", "values": [
      {"measurement": "Effect of verapamil (100 μM) on intracellular fluorescence", "value": "substantially enhances the intracellular fluorescence"}
    ]}
  ]
}
